# Source: patent US20220087990A1, “APPLICATION OF RIFAMYCIN-QUINOLIZIDONE CONJUGATE MOLECULE AND PHARMACEUTICALLY ACCEPTABLE SALT THEREOF” (priority 2019, published 2022)
# System: Staphylococcus aureus CB1406 (wild type)
# Type: in vivo, Staphylococcus aureus; Balb/c mice
# Description: Test Drug: rifamycin-quinolizidone conjugate molecule I was provided by TenNor Therapeutics, Ltd., and was stored at −20° C. Other test compounds and reagents are commercially available. […] For remaining test agents, aqueous vehicles of sterile water, 5% sodium bicarbonate or 0.9% normal saline were added to the compound shown in formula I. The rifamycin-quinolizidone conjugate molecule formulation shown in formula I was administered at 30 mg/kg.
# Bacteria: The bacteria used were biofilm forming Staphylococcus aureus strains. […] Minimal inhibit concentrations (MICs) were determined by broth microdilution assays recommended by CLSI. […]
# Formation and treatments of subcutaneous implant infections: the mice were anesthetized with isoflurane vapors (4 L/min). […] The mice were returned to their cages and regularly monitored for adverse reactions. […] Implant-associated bacteria were monitored by sampling colonized catheter segments during the course of implant surgeries and at regular intervals for up to 28 days post infection.
# Sampling of infected implants: infected mice were euthanized by CO2 inhalation, then flanks were sterilized with 70% ethanol, and the infected catheter segments were excised into 1 mL of phosphate buffered saline pH 7.2 (1×PBS). […] Explanted samples were then snap frozen in dry ice/ethanol and stored at −80° C. until CFU counts were determined. […]
structure (smiles),measurement,setting,value
CO[C@H]1/C=C/O[C@@]2(C)Oc3c(C)c(O)c4c(O)c(c(/C=N/N5CCC(N(C)C6([C@@H]7CCN(c8c(F)cn9c(=O)c(C(=O)O)cc(C%10CC%10)c9c8C)C7)CC6)CC5)c(O)c4c3C2=O)NC(=O)/C(C)=C\C=C\[C@H](C)[C@H](O)[C@@H](C)[C@@H](O)[C@@H](C)[C@H](OC(C)=O)[C@@H]1C [I],resistance development to rifampicin or I (growth of recovered isolates on antibiotic containing plates),14-day treatment,No resistance development
same,resistance to rifampicin or I,"rebound regimen, all sampling points",No resistance to rifampicin or I was observed
